This is an account of results in patent US8034799B2, “Preventing and/or treating cardiovascular disease and/or associated heart failure” (Philera New Zealand Limited, priority 2002, dated 2011).

Like-named read-outs stand apart in the source and are kept apart here.

The data set deals with STZ diabetic and normal Wistar rats. As to conditions: mean ± SD.

`NCCNCCNCCN` [trientine, N,N′-Bis(2-aminoethyl)-1,2-ethanedi-amine] returned a Final weight (STZ/D7: diabetic rats, trientine 50 mg/L in drinking water weeks 7-13) of 290 ± 56 g and a Final weight (Sham/D7: non-diabetic rats, trientine in drinking water weeks 7-13) of 563 ± 17 g.
